In assay [1] the target is His-FliI (Salmonella enterica) (UniProt P26465). Briefly: pull-down; Ni-NTA affinity chromatography of lysates of S. enterica SJW1368 co-expressing untagged FliH with His-FliI or its variants; wash 20 mM Tris-HCl pH 8.0, 500 mM NaCl, 50 mM imidazole; stepwise elution with 100, 250, 500 mM imidazole; SDS-PAGE with CBB.
Assay [2] addresses T1, His-FliI (Salmonella enterica), P26465.
T1 chain: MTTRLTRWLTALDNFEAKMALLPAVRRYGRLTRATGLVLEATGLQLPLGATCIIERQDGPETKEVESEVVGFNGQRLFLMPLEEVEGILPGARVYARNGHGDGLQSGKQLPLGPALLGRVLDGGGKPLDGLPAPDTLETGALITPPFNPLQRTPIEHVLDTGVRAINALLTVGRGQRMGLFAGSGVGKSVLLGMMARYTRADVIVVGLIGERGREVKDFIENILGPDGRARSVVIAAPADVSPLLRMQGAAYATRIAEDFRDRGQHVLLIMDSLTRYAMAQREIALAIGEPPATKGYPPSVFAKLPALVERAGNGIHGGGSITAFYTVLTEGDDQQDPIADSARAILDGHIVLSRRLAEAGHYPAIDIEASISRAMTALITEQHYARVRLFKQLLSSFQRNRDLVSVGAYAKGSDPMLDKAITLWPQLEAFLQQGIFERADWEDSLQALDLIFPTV
Nature of the assay: negative-stain electron microscopy; purified FliI 1 μM in 50 mM Tris-HCl pH 8.0, 113 mM NaCl, 0.8 mM EDTA, 1 mM DTT with 5 mM MgCl2, 5 mM ADP, 5 mM AlCl3, 15 mM NaF, 20 min at room temperature; uranyl acetate stain; reference-free 2D class averages (RELION); monomers to hexameric ring; both purified. As to conditions: remark: other sources report otherwise.

Results are given in words; binding and its absence hold for the method and conditions named. For some assays here: Binding seen in cells or lysates may run through a third protein. Some results given as binding are weak or reduced against the parent protein; the word gives no strength. For some assays here: Tags and fused reporters may be left off the sequences shown.

B1: FliH (protein, UniProt P15934 1-235)
chain: MSNELPWQVWTPDDLAPPPETFVPVEADNVTLTEDTPEPELTAEQQLEQELAQLKIQAHEQGYNAGLAEGRQKGHAQGYQEGLAQGLEQGQAQAQTQQAPIHARMQQLVSEFQNTLDALDSVIASRLMQMALEAARQVIGQTPAVDNSALIKQIQQLLQQEPLFSGKPQLRVHPDDLQRVEEMLGATLSLHGWRLRGDPTLHHGGCKVSADEGDLDASVATRWQELCRLAAPGVL
As for B1, the binding entry in assay [1] was “binds”.

B2: His-FliI, P26465 1-456 (enzyme)
chain: T1 chain
In the case of B2, in assay [2], the binding entry was “no binding (tested: 1 μM)”.

For the origin of these results see article PMC8041783.
